The list is a part of this screen's results and no random one: it is rich in T/C values a quarter to a half above the control, in often repeated tests (any T/C) and in doses without a T/C. Further doses and runs are listed elsewhere. T/C is the treated group as % of the vehicle group. Some doses have a count of surviving animals in place of a T/C: the source files T/C as zero there, which appears to mark a toxic dose or a test without result, not a measured value. Some doses without a T/C left all or most animals alive at the check, yet need not have been tolerated: the source hardly ever lists a survival T/C far under the control, and the zero likely stands for such cases as well. Counts of survivors are from the toxicity check (mostly the fifth day) where no day follows; animals may have died later. Schedules are NCI's codes, taken here to give the interval after Q, in days (D) or hours (H), and the number of doses after X. Some schedule codes hold Z or #, which are not explained here. For survival time, this PubChem deposit counts one and a half times the control or more as active, and values a quarter to a half above the control carry no call in these data; other NCI protocols may use other cut-offs. Some entries hold several experiments; the values are given in rising order.
System: L1210 leukemia ip in BDF1 mice, survival T/C
Assay: NCI In Vivo Anticancer Drug Screen. Data for tumor model L1210 Leukemia (intraperitoneal) in B6D2F1 (BDF1) mice
Settings: T/C endpoint: mean survival time, higher T/C = longer survival
[1] = dose: 100.0 mg/kg/injection, schedule: Q04DX003 (ip), vehicle: Klucel (hydroxypropylcellulose) (HPC)
[2] = dose: 200.0 mg/kg/injection, schedule: Q04DX003 (ip), vehicle: Klucel (hydroxypropylcellulose) (HPC)
[3] = dose: 400.0 mg/kg/injection, schedule: Q04DX003 (ip), vehicle: Klucel (hydroxypropylcellulose) (HPC)
[4] = dose: 400.0 mg/kg/injection, schedule: Q01DX001 (ip), vehicle: carboxymethylcellulose (CMC)
[5] = dose: 100.0 mg/kg/injection, schedule: Q01DX009 (ip), vehicle: saline
[6] = dose: 400.0 mg/kg/injection, schedule: Q01DX009 (ip), vehicle: saline with Tween-80
[7] = dose: 200.0 mg/kg/injection, schedule: Q01DX001 (ip), vehicle: saline
[8] = dose: 400.0 mg/kg/injection, schedule: Q01DX001 (ip), vehicle: saline
[9] = dose: 400.0 mg/kg/injection, schedule: Q04DX003 (ip), vehicle: saline
[10] = dose: 400.0 mg/kg/injection, schedule: Q01DX009 (ip), vehicle: saline
[11] = dose: 400.0 mg/kg/injection, schedule: Q04DX003 (ip), vehicle: saline with Tween-80

Structure (SMILES): O=C1C(Cl)=C(Br)C(=O)C1(Br)Br
- survivor count [1]: 6 of 6
- survivor count [2]: 0 of 6
- survivor count [3]: 0 of 6

Structure (SMILES): S=C(N/N=C\c1ccc2c(c1)OCO2)Nc1ccc2cn[nH]c2c1
- survivor count [4]: 1 of 4

Structure (SMILES): ICc1ccc(CI)cc1
- survivor count (dose: 50.0 mg/kg/injection, schedule: Q01DX009 (ip), vehicle: saline): 3 of 6
- survivor count [5]: 0 of 6
- survivor count (dose: 200.0 mg/kg/injection, schedule: Q04DX003 (ip), vehicle: acetone): 6 of 6
- survivor count (dose: 400.0 mg/kg/injection, schedule: Q04DX003 (ip), vehicle: acetone): 2 of 6

Structure (SMILES): Cc1cc(Cl)c2ccccc2n1
- survivor count (dose: 150.0 mg/kg/injection, schedule: Q01DX001 (ip), vehicle: other): 3 of 6
- survivor count (dose: 150.0 mg/kg/injection, schedule: Q04DX003 (ip), vehicle: saline): 2 of 6
- survivor count (dose: 300.0 mg/kg/injection, schedule: Q01DX001 (ip), vehicle: other): 0 of 6

Structure (SMILES): CC12C=CC(CC1)C2O (stereo unspecified)
- survivor count [6]: 4 of 6

Structure (SMILES): CN1CCCC2C(c3ccccc3)C(C3=NCCCC3)C(c3ccccc3)CC21 (stereo unspecified)
- survivor count [7]: 0 of 4
- survivor count [8]: 0 of 4

Structure (SMILES): O=P(c1ccccc1)(N1CCCC1)N1CCCC1
- survivor count [9]: 2 of 6

Structure (SMILES): O=C(CSc1ccccc1)NCc1cnccn1
- survivor count [10]: 3 of 6

Structure (SMILES): CCS(=O)(=O)OCCCl
- survivor count (dose: 100.0 mg/kg/injection, schedule: Q01DX009 (ip), vehicle: Klucel (hydroxypropylcellulose) (HPC)): 3 of 6
- survivor count (dose: 200.0 mg/kg/injection, schedule: Q01DX009 (ip), vehicle: Klucel (hydroxypropylcellulose) (HPC)): 2 of 6
- survivor count (dose: 200.0 mg/kg/injection, schedule: Q04DX002 (ip), vehicle: Klucel (hydroxypropylcellulose) (HPC)): 0 of 3
- survivor count [4]: 0 of 6
- survivor count (dose: 400.0 mg/kg/injection, schedule: Q04DX002 (ip), vehicle: Klucel (hydroxypropylcellulose) (HPC)): 0 of 3

Structure (SMILES): CCN(CC)CCOc1cccc(C)c1C
- survivor count (dose: 200.0 mg/kg/injection, schedule: Q04DX003 (ip), vehicle: saline with Tween-80): 0 of 6
- survivor count [11]: 0 of 6

Structure (SMILES): C#CCOCCBr
- survivor count [11]: 0 of 6

Structure (SMILES): C=CCNC(=O)CCl
- T/C (dose: 50.0 mg/kg/injection, schedule: Q04DX003 (ip), vehicle: saline): 127 % of control
- T/C (dose: 100.0 mg/kg/injection, schedule: Q04DX003 (ip), vehicle: saline): 127 % of control
- survivor count (dose: 200.0 mg/kg/injection, schedule: Q04DX003 (ip), vehicle: saline): 2 of 6
- survivor count [9]: 0 of 6

Structure (SMILES): Cc1ccc(N2CCN(C(C)(C)C#N)CC2)cc1
- survivor count [8]: 0 of 6

Structure (SMILES): NC(=S)c1[nH]cnc1N
- survivor count (dose: 90.0 mg/kg/injection, schedule: Q01DX015 (ip), vehicle: saline): 3 of 6
- survivor count [7]: 0 of 6
- survivor count [8]: 0 of 6

Structure (SMILES): CC1CC[N+](C)(CC(=O)c2ccc(-c3ccc(C(=O)C[N+]4(C)CCC(C)CC4)cc3)cc2)CC1 (stereo unspecified)
- survivor count (dose: 2.5 mg/kg/injection, schedule: Q04DX003 (ip), vehicle: Klucel (hydroxypropylcellulose) (HPC)): 0 of 6
- survivor count (dose: 5.0 mg/kg/injection, schedule: Q04DX003 (ip), vehicle: Klucel (hydroxypropylcellulose) (HPC)): 0 of 6
- survivor count (dose: 10.0 mg/kg/injection, schedule: Q04DX003 (ip), vehicle: Klucel (hydroxypropylcellulose) (HPC)): 0 of 6
- survivor count (dose: 20.0 mg/kg/injection, schedule: Q04DX003 (ip), vehicle: Klucel (hydroxypropylcellulose) (HPC)): 0 of 6
- survivor count (dose: 40.0 mg/kg/injection, schedule: Q04DX003 (ip), vehicle: Klucel (hydroxypropylcellulose) (HPC)): 0 of 6
- survivor count [1]: 0 of 6
- survivor count [2]: 0 of 6
- survivor count [3]: 0 of 6

Structure (SMILES): CC(C)(C)P1(=O)OCC(c2ccccc2)CO1 (stereo unspecified)
- survivor count (dose: 400.0 mg/kg/injection, schedule: Q04DX003 (ip), vehicle: other): 3 of 6

Structure (SMILES): O=C1C=C(N2CC2)C(=O)C(N2CC2)=C1N1CC1
- T/C (dose: 0.02 mg/kg/injection, schedule: Q01DX Z (ip), vehicle: saline): 140 % of control
- T/C (dose: 0.05 mg/kg/injection, schedule: Q01DX Z (ip), vehicle: saline): 145 % of control
- T/C (dose: 0.15 mg/kg/injection, schedule: Q01DX001 (ip), vehicle: saline): 126 % of control
- survivor count (dose: 0.2 mg/kg/injection, schedule: Q01DX Z (ip), vehicle: saline): 6 of 6
- survivor count (dose: 75.0 mg/kg/injection, schedule: Q01DX001 (ip), vehicle: saline): 0 of 6
- survivor count (dose: 150.0 mg/kg/injection, schedule: Q01DX001 (ip), vehicle: saline): 0 of 6
- survivor count (dose: 300.0 mg/kg/injection, schedule: Q01DX001 (ip), vehicle: saline): 0 of 6
- T/C (dose: 50.0 micrograms/kg/injection, schedule: Q01DX015 (ip), vehicle: saline): 127 and 135 % of control
- T/C (dose: 100.0 micrograms/kg/injection, schedule: Q01DX015 (ip), vehicle: saline): 147 % of control
- T/C (dose: 150.0 micrograms/kg/injection, schedule: Q01DX009 (ip), vehicle: saline): 135 % of control
- T/C (dose: 200.0 micrograms/kg/injection, schedule: Q01DX015 (ip), vehicle: saline): 133 % of control
- survivor count (dose: 300.0 micrograms/kg/injection, schedule: Q01DX009 (ip), vehicle: saline): 5 of 6
- survivor count (dose: 400.0 micrograms/kg/injection, schedule: Q01DX015 (ip), vehicle: saline): 6 of 6
- survivor count (dose: 600.0 micrograms/kg/injection, schedule: Q01DX009 (ip), vehicle: saline): 2 of 6

Structure (SMILES): CNS(=O)(=O)c1ccc(NC(=O)CI)cc1
- survivor count (dose: 25.0 mg/kg/injection, schedule: Q04DX003 (ip), vehicle: other): 3 of 6
- survivor count (dose: 50.0 mg/kg/injection, schedule: Q04DX003 (ip), vehicle: other): 0 of 6
- survivor count (dose: 100.0 mg/kg/injection, schedule: Q01DX001 (ip), vehicle: other): 2 of 6
- survivor count (dose: 200.0 mg/kg/injection, schedule: Q01DX001 (ip), vehicle: other): 2 of 6
- survivor count (dose: 400.0 mg/kg/injection, schedule: Q01DX001 (ip), vehicle: other): 0 of 6

Structure (SMILES): Nc1c(Cl)c(Cl)nc(C(=O)O)c1Cl
- survivor count (dose: 25.0 mg/kg/injection, schedule: Q01DX009 (ip), vehicle: Klucel (hydroxypropylcellulose) (HPC)): 0 of 6

Structure (SMILES): COc1cccc(/C=C(/SC)S(C)=O)c1OC (stereo unspecified)
- survivor count [5]: 0 of 6
- survivor count (dose: 200.0 mg/kg/injection, schedule: Q01DX009 (ip), vehicle: saline): 0 of 6
- survivor count [10]: 4 of 6

Structure (SMILES): NC(=S)N/N=C/c1cnccn1
- T/C (dose: 100.0 mg/kg/injection, schedule: Q01DX009 (ip), vehicle: saline with Tween-80): 143 % of control
- survivor count [6]: 1 of 6

Structure (SMILES): COc1nc(Cl)nc(Cl)n1
- survivor count (dose: 12.0 mg/kg/injection, schedule: Q01DX Z (ip), vehicle: methylcellulose (MC)): 1 of 6
- survivor count (dose: 25.0 mg/kg/injection, schedule: Q01DX Z (ip), vehicle: methylcellulose (MC)): 0 of 6
- survivor count (dose: 50.0 mg/kg/injection, schedule: Q01DX Z (ip), vehicle: methylcellulose (MC)): 0 of 6
- survivor count (dose: 100.0 mg/kg/injection, schedule: Q01DX Z (ip), vehicle: methylcellulose (MC)): 0 of 6
- survivor count (dose: 200.0 mg/kg/injection, schedule: Q01DX Z (ip), vehicle: methylcellulose (MC)): 0 of 6

Source: PubChem BioAssay AID248 (DTP/NCI, 2004)
